For part of these data: The comparison behind a weaker result is the experiment's own reference, which may not be listed here. Tags and fusion partners may be left off the protein sequences shown. For part of these data: Construct, isoform or probe ends are uncertain for at least one entry. For part of these data: At least one verdict rests on a figure or table, not on a statement of the authors.
How the values were obtained:
Assay in all cases: fluorescence anisotropy
[1] = molecular target: T1, MYCN FL (UniProt P04198); settings: residues 1-464; letters put together from the description
T1 sequence (looked up): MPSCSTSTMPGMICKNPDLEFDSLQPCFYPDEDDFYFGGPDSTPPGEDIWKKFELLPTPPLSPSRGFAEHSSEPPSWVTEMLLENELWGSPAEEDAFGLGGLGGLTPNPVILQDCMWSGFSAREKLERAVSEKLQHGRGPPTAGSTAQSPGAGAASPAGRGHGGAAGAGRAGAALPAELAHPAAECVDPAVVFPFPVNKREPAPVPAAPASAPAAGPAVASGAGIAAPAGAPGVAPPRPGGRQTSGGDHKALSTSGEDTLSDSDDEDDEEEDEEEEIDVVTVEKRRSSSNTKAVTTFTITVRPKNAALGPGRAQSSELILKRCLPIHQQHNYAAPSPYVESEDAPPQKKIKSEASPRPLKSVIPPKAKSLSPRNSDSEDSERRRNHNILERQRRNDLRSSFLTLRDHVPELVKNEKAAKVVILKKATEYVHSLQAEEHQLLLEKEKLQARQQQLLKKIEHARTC

[2] = molecular target: T2, MYCN 1-154 (UniProt P04198); settings: residues 1-154
T2 sequence (looked up): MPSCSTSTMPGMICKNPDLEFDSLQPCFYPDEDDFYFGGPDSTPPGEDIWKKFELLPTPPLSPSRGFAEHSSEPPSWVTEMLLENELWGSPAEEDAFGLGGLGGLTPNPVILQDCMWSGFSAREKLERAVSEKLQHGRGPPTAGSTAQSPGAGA

[3] = molecular target: T3, MYCN 1-154 dMBI del45-65 (UniProt P04198); settings: residues 1-154
T3 sequence (looked up): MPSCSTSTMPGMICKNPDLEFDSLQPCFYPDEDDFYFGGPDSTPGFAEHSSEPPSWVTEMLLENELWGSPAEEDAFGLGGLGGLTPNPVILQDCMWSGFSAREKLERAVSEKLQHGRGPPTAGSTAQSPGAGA

| Sequence | binding result [1] | binding result [2] | binding result [3] |
| --- | --- | --- | --- |
| TGCTGGGATGGTCATGGTGGGTGACCCTGGGATGGCCGCGGTGGGTGACCCTGGAATGGT (double strand) [UGhigh dsDNA] | binds more weakly |  |  |
| UGCUGGGAUGGUCAUGGUGGGUGACCCUGGGAUGGCCGCGGUGGGUGACCCUGGAAUGGU [UGhigh RNA] |  | binds | binds more weakly |

Source: article doi:10.1101/2023.08.16.553474
